Measurements as given in US20110251128A1, “THYMOSIN Beta4 PEPTIDES PROMOTE TISSUE REGENERATION” (The Board of Regents of the University of Texas System, priority 2010, published 2011).
Entries after “also recorded” stand apart in the source; their conditions may differ. Not every detail of the peptide structures is certain; ends, links or a residue may be inferred. No end group written: not given here.

System: cardiomyocytes
Assay: TUNEL assay on hearts after coronary ligation
Assay type: in vivo, mouse
Settings: 24 h after ligation
Description: Animals and Surgical procedures. Mice: Myocardial infarctions were produced in seventy C57BL/6J male mice at 16 weeks of age (25-30 g) by ligation of the left anterior descending (LAD) coronary artery as described (Garner et al., 2003). All animal protocols were reviewed and approved by the University of Texas Southwestern Medical School Institutional Animal Care Advisory Committee and were in compliance with the rules governing animal use as published by the NIH. Mice were sedated in an isoflurane chamber (5%) for 60 seconds until self-designed coaxial mask could be safely applied. The mask supplied continuous isoflurane (2.0%) and oxygen (98.0%) under positive pressure from a Harvard small animal respirator throughout the procedures. […] Effective doses of the peptides were calculated based on optimal in vitro cell migration effect and on biodistribution calculations of full length TB4 (Mora et al., 1997). […]
Immunohistochemistry. Adult mouse cardiac tissue was fixed in 4% paraformaldehyde and sections were analyzed by immunohistochemistry. […] Number of sm a-actin positive capillaries and Wt-1 positive cells were counted at the infarction border zone in high power photographs at all levels of the sections in three peptide, TB4 and PBS treated hearts respectively.

**Q.** How did the “TUNEL positive cardiomyocytes (myocardial cell death)” value turn out when LKKTETQEKNPLPSKETIEQEKQAGES [#14] was run?
**A.** significantly decreased TUNEL positivity; also recorded: significant decrease of myocardial cell death
